Experimental data reported in PMC9697976, “Giardia lamblia G6PD::6PGL Fused Protein Inhibitors Decrease Trophozoite Viability: A New Alternative against Giardiasis” (International Journal of Molecular Sciences, 2022).

Assays:
Set-up in all cases: species or system Giardia lamblia
GlG6PD::6PGL protein = assay: Far-UV circular dichroism of G6PD::6PGL with compounds; conditions: compound at IC50 concentration, 0.4 mg/mL protein, 2 h, 37 °C
G6PD::6PGL protein [1] = assay: Intrinsic fluorescence assay of G6PD::6PGL; conditions: compound at IC50 concentration, 0.1 mg/mL protein, 2 h, 37 °C; for Maximum intrinsic fluorescence intensity: compound-free protein 874 a.u.
G6PD::6PGL protein [2] = assay: Extrinsic fluorescence (ANS) assay of G6PD::6PGL; conditions: compound at IC50 concentration, 0.1 mg/mL protein, 2 h, 37 °C

Row | SMILES | Loss of secondary structure (CD) with respect to compound-free protein (GlG6PD::6PGL protein) | Loss of intrinsic fluorescence regarding compound-free enzyme (G6PD::6PGL protein [1]) [%] | Maximum intrinsic fluorescence intensity (G6PD::6PGL protein [1]) [a.u.] | Decrease in ANS fluorescence intensity regarding compound-free enzyme (G6PD::6PGL protein [2]) [%] | Extrinsic (ANS) fluorescence intensity (G6PD::6PGL protein [2]) [a.u.]
1 | O=C1NC(=O)C(=Cc2ccc(OCc3ccccc3)cc2)C(=O)N1 [CMC-1] | 70% | 20 | 695 |  | 
2 | CCCCCC(=O)Nc1nc([N+](=O)[O-])cs1 [FLP-2] | around 80% | 80 | 171 | 56 | 155
3 | O=C(Nc1ccc([N+](=O)[O-])cc1)Nc1nc([N+](=O)[O-])cs1 [CNZ-8] | 70% | 67 | 276 | 56 | 155
4 | CCCCOc1ccc(NC(=O)Nc2nc([N+](=O)[O-])cs2)cc1 [CNZ-7] | around 80% | 67 | 276 | 85 | 52
